Experimental data: PubChem BioAssay AID1508588 (Peter MacCallum Cancer Centre, 2020)
Purpose: 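Knock-downs boosting vemurafenib effects on melanoma cell growth or lactate release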 (primary screen). Cell system: human WM266.4 melanoma cells (BRAF V600 mutant). Reagents: siRNA pool against human genes, 40 nM. Duration: 96 h from transfection to read-out. Treatment: vemurafenib 300 nM (about IC25), added 48 h after transfection, for 48 h; comparison arm got DMSO vehicle only. Measured: 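Ratios to non-targeting siRNA for cell gain, counted as DAPI nuclei after minus before drug and averaged over two replicates, and for absorbance-read medium lactate per cell; both binned into fold-change classes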. Scale: cell gain with vemurafenib: higher = more cell gain than with non-targeting siRNA; lactate per cell with vemurafenib: higher = more lactate made per cell. Active means: 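Enhancement is called by pairing each knock-down's vehicle-arm and drug-arm fold-change classes for viability or glycolysis; which class combinations qualify is not given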. Calls: active = enhances vemurafenib effect; inactive = no enhancement seen.
The deposit covers about 18,000 reagents; shown is a part drawn at random. 790 of them (4.4%) were called active. 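Calls rest on a combination of fold-change classes in drug and vehicle arms, not all shown here.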 A number with no mark means an inactive call. No sequences are given here.

With GPR55 (G protein-coupled receptor 55), how do the results read?
cell gain with vemurafenib: 1.24; lactate per cell with vemurafenib: 0.86

What is on record for DSP (desmoplakin)?
cell gain with vemurafenib: 0.81; lactate per cell with vemurafenib: 0.5

How did the screen score NOP53 (NOP53 ribosome biogenesis factor)?
cell gain with vemurafenib: 0.36; lactate per cell with vemurafenib: 1.18

With DHRS4L2 (dehydrogenase/reductase 4 like 2), what was measured?
cell gain with vemurafenib: 0.63; lactate per cell with vemurafenib: 0.64

How did the screen score FOLH1 (folate hydrolase 1)?
cell gain with vemurafenib: 0.49 (active); lactate per cell with vemurafenib: 0.46

What did the screen give for BAG5 (BAG cochaperone 5)?
cell gain with vemurafenib: 0.72; lactate per cell with vemurafenib: 0.55

Quoted from above, 2 entries:
FOLH1 (folate hydrolase 1): cell gain with vemurafenib = 0.49 (active); lactate per cell with vemurafenib = 0.46
BAG5 (BAG cochaperone 5): cell gain with vemurafenib = 0.72; lactate per cell with vemurafenib = 0.55

More reagents:
What is on record for KPNA1 (karyopherin subunit alpha 1)?
cell gain with vemurafenib: 0.75; lactate per cell with vemurafenib: 0.96

What is on record for ZC3H8 (zinc finger CCCH-type containing 8)?
cell gain with vemurafenib: 0.77; lactate per cell with vemurafenib: 0.66

What is on record for POLR2I (RNA polymerase II subunit I)?
cell gain with vemurafenib: 0.21; lactate per cell with vemurafenib: 1

What is on record for OR2F2 (olfactory receptor family 2 subfamily F member 2)?
cell gain with vemurafenib: 0.73; lactate per cell with vemurafenib: 0.64

How did the screen score TMEM190 (transmembrane protein 190)?
cell gain with vemurafenib: 0.4; lactate per cell with vemurafenib: 0.66

With PGAM2 (phosphoglycerate mutase 2), what was measured?
cell gain with vemurafenib: 1.07; lactate per cell with vemurafenib: 0.7

For SYT17 (synaptotagmin 17), how do the results read?
cell gain with vemurafenib: 0.62; lactate per cell with vemurafenib: 0.42

For CCL3L3 (C-C motif chemokine ligand 3 like 3), what was measured?
cell gain with vemurafenib: 0.7; lactate per cell with vemurafenib: 0.28

Which result is listed for OR5B2 (olfactory receptor family 5 subfamily B member 2)?
cell gain with vemurafenib: 0.74; lactate per cell with vemurafenib: 0.46

What is on record for H3-3B (H3.3 histone B)?
cell gain with vemurafenib: 0.76; lactate per cell with vemurafenib: 0.43
